Data on five compounds can be found in paper PMC9704079, “Enhancement of the anticancer effect of atorvastatin-loaded nanoemulsions by improving oral absorption via multivalent intestinal transporter-targeting lipids” (Drug Delivery, 2022).

The chains behind the UniProt entries cited, without tags or fusion partners.
UniProt P08183, whole entry: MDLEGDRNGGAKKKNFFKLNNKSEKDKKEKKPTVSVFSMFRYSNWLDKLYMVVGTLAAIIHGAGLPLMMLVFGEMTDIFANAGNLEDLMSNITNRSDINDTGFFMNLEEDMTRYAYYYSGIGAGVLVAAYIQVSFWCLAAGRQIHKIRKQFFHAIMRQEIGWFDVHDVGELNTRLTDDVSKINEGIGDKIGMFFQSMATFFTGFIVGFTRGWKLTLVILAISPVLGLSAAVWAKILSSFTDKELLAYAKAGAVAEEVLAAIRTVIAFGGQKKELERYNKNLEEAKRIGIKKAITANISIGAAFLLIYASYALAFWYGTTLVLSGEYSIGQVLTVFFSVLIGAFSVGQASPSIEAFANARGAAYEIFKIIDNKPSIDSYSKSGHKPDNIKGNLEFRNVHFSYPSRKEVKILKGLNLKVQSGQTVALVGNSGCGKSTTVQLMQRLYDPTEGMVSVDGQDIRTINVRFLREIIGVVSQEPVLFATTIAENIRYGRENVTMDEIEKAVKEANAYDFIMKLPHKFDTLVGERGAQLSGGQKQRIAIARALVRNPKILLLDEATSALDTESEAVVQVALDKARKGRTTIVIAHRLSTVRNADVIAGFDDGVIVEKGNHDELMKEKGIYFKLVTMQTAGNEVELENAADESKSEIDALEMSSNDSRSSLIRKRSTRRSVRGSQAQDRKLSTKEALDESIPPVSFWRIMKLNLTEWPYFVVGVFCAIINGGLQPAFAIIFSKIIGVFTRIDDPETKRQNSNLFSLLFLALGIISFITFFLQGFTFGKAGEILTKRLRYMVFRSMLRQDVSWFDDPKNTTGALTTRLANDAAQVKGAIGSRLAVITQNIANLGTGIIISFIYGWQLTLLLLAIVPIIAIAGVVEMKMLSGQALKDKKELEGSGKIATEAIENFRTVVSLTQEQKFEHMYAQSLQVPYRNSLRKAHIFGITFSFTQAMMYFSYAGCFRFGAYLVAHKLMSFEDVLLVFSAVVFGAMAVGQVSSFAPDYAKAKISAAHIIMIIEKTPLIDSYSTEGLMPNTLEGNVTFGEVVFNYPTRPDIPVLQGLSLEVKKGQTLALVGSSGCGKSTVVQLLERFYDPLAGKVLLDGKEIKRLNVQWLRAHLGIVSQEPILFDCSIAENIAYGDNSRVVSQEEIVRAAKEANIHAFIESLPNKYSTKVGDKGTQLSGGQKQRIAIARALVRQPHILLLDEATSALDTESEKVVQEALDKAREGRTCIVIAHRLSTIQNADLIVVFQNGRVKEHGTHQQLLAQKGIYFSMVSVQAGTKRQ

The test system of series [1] is 4T1 (murine stage IV breast cancer) cells. The experiment in a line: cells. Type of series: cell-based. Conditions: Mus musculus; 4T1 cells, treatment for 24 h. The method, then:
(§1) To evaluate the cytotoxic effects of ATV-NEs, 4T1 (murine stage IV breast cancer) or MCF-7 (human breast adenocarcinoma) cells were seeded in 96-well plates at a density of 1 × 10^4 cells/well in 100 µL of Roswell Park Memorial Institute medium or Dulbecco’s Modified Eagle’s Medium supplemented with 10% FBS, 1% penicillin/streptomycin, and 1% non-essential amino acids. […]. After incubation for 1 h, the absorbance at 450 nm was measured and the percentage of viable cells was calculated by comparison with the absorbance of untreated cells (100% viability).

Series [2] relates to human ASBT gene-transfected MDCK cells. Nature of the series: Confocal cellular uptake in ASBT-transfected or non-transfected MDCK cells with or without SMVT inhibitor. Type of series: cell-based, canine. Conditions: 1 h, equivalent to 100 µg/mL ATV. The procedure: After DOCA-TAP and/or Biotinyl PE had been anchored onto the NEs, the enhancement of intestinal permeability of ATV from the ATV-NEs (via interactions with bile acid transporters and multivitamin transporters) was evaluated using human ASBT gene-transfected Mardin–Darby canine kidney (MDCK) cells (ATCC® CCL-34™) in the presence or absence of SMVT inhibitor (i.e., PA). Briefly, MDCK cells were seeded at a density of 1 × 10^4 cells/coverslip and then transfected with the human ASBT gene (SLC10A2 human cDNA open reading frame [ORF] clone; OriGene Technologies, Inc., Rockville, MD, USA) by using Lipofectamine 2000® and P300™ (Thermo Fisher Scientific). After the formation of a confluent monolayer, the cells were treated with 100 µL of coumarin 6 and ATV dispersed in water or 0.5% DMSO, or coumarin 6-coloaded ATV-NE#1, ATV-NE#3, ATV-NE#4, ATV-NE#5, and ATV-NE#6 at a concentration equivalent to 100 µg/mL ATV, in the absence or presence of PA. After incubation for 1 h, the cells were washed three times with ice-cold PBS (pH 7.4), then fixed with 4% formaldehyde and blocking buffer (0.3% Triton X-100 and 10% normal goat serum in PBS, pH 7.4). Next, they were incubated overnight with anti-human ASBT antibody (1:500) and stained with 10 µg/mL Alexa Fluor-546-labeled secondary antibody for 1 h. […] Fluorescence images were examined by confocal laser scanning microscopy.

Series [3] can be described thus: In vivo oral absorption (pharmacokinetics) in rats. The following applies: 40 mg/kg ATV, mean ± SD.
Series [4] in a line: in vivo. Conditions: Sprague-Dawley, rat, plasma.
A short description of series [5]: in vitro. Type of series: cell-based, murine. Conditions: mouse. The method, then: as §1
A short description of series [6]: in vitro. Type of series: cell-based. Conditions: human. The method, then: as §1
In series [7] the target is T1, P-gp (Homo sapiens, UniProt P08183).
T1 construct: a Caco-2/HT-29 MTX-E12 cell monolayer was prepared as described above; endogenous in cells; host or cells: Caco-2/HT-29 MTX-E12 co-culture monolayer
Nature of the series: P-gp efflux: net apparent permeability ratio with or without Cys A. The series is classed as in vitro ADME. The following applies: from NAPR values.

Converted amounts (≈) assume the structure as drawn.

For orientation: IC50 means the concentration at which inhibition is half-maximal. A low value points to greater potency in that assay. Usually Tmax stands for the time from dosing to the highest level. For orientation: Cmax means the maximum level reached in the sampled fluid or tissue. Broadly, the AUC(0-inf) is total exposure, with the tail of the curve extrapolated. Low values mean less exposure, high ones more exposure. For orientation: viability means the share of living cells, or the viability signal relative to a control. Read a high viability as less harm to the cells. For orientation: AUC(0-t) means the area under the concentration-time curve up to a stated or last time point.

For `CC(C)c1c(C(=O)Nc2ccccc2)c(-c2ccccc2)c(-c2ccc(F)cc2)n1CC[C@@H](O)C[C@@H](O)CC(=O)O` [ATV in 0.5% DMSO, Atorvastatin], the IC50 in series [1] came out at 256 ± 2.03 µg/mL (≈ 458 µM). Besides, the “Cellular uptake of coumarin 6 by ASBT-expressing or non-transfected MDCK cells with or without SMVT inhibitor PA (confocal, in words)” value in series [2] is “did not reveal any variation in cellular uptake”.

In the case of `CC(C)c1c(C(=O)Nc2ccccc2)c(-c2ccccc2)c(-c2ccc(F)cc2)n1CC[C@@H](O)C[C@@H](O)CC(=O)O` [ATV in 10% DMF, Atorvastatin], in series [3] (n = 4), the Tmax turned out to be 4.00 ± 0.00 h. In series [3] (n = 4, 40 mg/kg), this compound had an AUCinf of 283 ± 32.5 ng·h/mL, an AUClast of 256 ± 49.9 ng·h/mL and a maximum concentration (Cmax) of 39.2 ± 3.95 ng/mL.

Consider `CC(C)c1c(C(=O)Nc2ccccc2)c(-c2ccccc2)c(-c2ccc(F)cc2)n1CC[C@@H](O)C[C@@H](O)CC(=O)O` [ATV in water, Atorvastatin], for which, in series [4] (po, 40 mg/kg), the AUC(0-inf) amounted to 149 ± 13.5 ng·h/mL, the Cmax turned out to be 28.1 ± 2.94 ng/mL and the Tmax was 4 h. In addition, in series [3] (n = 4, 40 mg/kg), the AUClast is listed as 117 ± 7.03 ng·h/mL. The same compound registered a viability at 24 h, 200 µg/mL in series [5] of 80.5%. The viability at 24 h, 200 µg/mL in series [6] came to 74.8%. The “Cellular uptake of coumarin 6 by ASBT-expressing or non-transfected MDCK cells with or without SMVT inhibitor PA (confocal, in words)” value in series [2] is “did not reveal any variation in cellular uptake”.

Consider `CC(C)c1c(C(=O)Nc2ccccc2)c(-c2ccccc2)c(-c2ccc(F)cc2)n1CC[C@@H](O)C[C@@H](O)CC(=O)O` [ATV, Atorvastatin], for which the “P-gp substrate status (in words)” value in series [7] was “substrate of P-gp”.

With `CC(C)c1c(C(=O)Nc2ccccc2)c(-c2ccccc2)c(-c2ccc(F)cc2)n1CC[C@@H](O)C[C@@H](O)CC(=O)O` [ATV-IP, Atorvastatin], in series [4] (ip, 2 mg/kg), the AUC(0-inf) came to 220 ± 4.94 ng·h/mL, the exposure AUC(0-t) stood at 211 ± 4.84 ng·h/mL, the Cmax was 82.5 ± 2.28 ng/mL and the time to peak (Tmax) worked out at 0.5 h.
